Results taken from PMC10928159.

Protein sequences, listed by entry. Tags and fused reporters are not part of them.
UniProt Q93009: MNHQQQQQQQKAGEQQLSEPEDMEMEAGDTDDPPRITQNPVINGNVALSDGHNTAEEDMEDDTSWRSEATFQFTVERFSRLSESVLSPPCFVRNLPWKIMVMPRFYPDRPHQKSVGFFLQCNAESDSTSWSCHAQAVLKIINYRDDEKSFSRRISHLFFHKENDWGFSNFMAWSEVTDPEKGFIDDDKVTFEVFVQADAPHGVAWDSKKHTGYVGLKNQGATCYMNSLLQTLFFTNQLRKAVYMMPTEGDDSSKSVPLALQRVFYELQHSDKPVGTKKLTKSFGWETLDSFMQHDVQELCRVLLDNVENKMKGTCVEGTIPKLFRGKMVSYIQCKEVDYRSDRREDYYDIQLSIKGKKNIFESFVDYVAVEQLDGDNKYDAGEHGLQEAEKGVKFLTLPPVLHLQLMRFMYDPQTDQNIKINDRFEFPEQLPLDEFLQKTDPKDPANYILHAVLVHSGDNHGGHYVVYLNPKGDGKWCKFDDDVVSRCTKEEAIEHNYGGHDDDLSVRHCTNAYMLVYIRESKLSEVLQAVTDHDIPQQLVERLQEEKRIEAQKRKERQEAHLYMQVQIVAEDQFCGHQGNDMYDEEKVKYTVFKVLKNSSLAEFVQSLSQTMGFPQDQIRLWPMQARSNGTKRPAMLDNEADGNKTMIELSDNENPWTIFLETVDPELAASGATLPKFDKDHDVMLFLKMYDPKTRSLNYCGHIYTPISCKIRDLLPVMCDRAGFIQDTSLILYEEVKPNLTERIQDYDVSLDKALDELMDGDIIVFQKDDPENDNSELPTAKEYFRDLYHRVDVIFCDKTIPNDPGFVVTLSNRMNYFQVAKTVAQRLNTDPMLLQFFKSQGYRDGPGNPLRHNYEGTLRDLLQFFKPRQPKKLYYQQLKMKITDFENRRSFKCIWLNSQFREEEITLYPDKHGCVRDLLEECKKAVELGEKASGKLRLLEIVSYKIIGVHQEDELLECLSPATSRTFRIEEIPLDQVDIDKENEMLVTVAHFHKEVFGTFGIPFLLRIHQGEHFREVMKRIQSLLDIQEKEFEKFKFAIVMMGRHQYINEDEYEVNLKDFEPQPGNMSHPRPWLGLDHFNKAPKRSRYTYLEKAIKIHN
UniProt Q96P20: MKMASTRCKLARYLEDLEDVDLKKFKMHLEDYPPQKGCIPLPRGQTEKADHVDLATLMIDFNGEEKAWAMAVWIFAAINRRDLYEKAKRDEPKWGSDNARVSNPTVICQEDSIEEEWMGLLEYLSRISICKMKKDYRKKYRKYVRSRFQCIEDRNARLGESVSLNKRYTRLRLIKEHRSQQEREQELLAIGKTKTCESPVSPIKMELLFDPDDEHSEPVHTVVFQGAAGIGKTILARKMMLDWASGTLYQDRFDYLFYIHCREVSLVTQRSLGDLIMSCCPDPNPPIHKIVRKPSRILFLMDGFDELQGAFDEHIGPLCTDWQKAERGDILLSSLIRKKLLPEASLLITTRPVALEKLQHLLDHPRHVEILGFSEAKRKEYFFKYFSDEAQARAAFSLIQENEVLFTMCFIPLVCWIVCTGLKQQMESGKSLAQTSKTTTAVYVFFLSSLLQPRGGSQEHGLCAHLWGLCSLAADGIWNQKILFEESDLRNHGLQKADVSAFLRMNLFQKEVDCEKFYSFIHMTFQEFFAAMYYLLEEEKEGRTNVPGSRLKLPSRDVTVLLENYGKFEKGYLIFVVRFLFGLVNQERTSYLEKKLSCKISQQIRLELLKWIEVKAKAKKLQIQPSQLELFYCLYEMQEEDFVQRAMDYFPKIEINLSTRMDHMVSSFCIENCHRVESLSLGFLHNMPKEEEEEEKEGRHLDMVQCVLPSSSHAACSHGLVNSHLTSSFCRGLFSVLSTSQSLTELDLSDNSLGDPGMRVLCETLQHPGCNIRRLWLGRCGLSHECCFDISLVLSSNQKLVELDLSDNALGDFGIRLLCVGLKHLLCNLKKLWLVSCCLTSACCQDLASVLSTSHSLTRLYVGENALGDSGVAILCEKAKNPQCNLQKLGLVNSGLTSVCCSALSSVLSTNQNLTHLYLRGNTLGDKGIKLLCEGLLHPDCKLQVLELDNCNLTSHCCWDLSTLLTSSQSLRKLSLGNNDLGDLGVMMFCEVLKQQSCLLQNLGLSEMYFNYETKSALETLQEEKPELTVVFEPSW

Target: Ubiquitin-specific protease 7 (human (endogenous in U2OS)) (UniProt Q93009)
Test: affinity purification with mass spectrometry; U2OS lysate (50 mM Tris-HCl pH 7.5, 150 mM NaCl, 5 mM EDTA) precipitated with anti-USP7 and protein A/G agarose, 4 °C; IgG as control; distinct SDS-PAGE band excised, in-gel tryptic digestion, QTOF MS

## NLRP3 (from UniProt Q96P20 1-1036)
  binding: binds

These are yes or no findings as the source states them, for the method shown. Binding seen in cells or lysates may run through a third protein. A yes stands for co-enrichment or nearness to the bait. Other partners may have been found.
